{"source": "paper PMC12040169", "about": "(PLOS Biology, 2025)", "note": "The other results are listed elsewhere or left out.", "data": [{"system": "T1, CTL2-GFP (C. trachomatis L2/434/Bu, GFP-expressing)", "T1 construct": "L2/434/Bu, GFP-expressing", "set-up": "species or system HeLa; Intracellular C. trachomatis growth in HeLa cells, bulk GFP fluorescence relative to DMSO", "conditions": "bulk GFP, single well; 28.5 h, 10 µM; inhibitor", "units": {"% of control remaining": "%"}, "values": [{"smiles": "Cc1nc(CCNC(=O)C2CCN(C(=O)c3ccc(F)cc3)CC2)cs1", "note": "[CBK304378]", "% of control remaining": 100.357}, {"smiles": "O=S(=O)(Nc1ccc2nsnc2c1)c1cccc(C(F)(F)F)c1", "note": "[CBK062221]", "% of control remaining": 100.225}, {"smiles": "Cn1cc(NC(=O)c2ccc(COc3c(F)c(F)cc(F)c3F)o2)c(C(=O)O)n1", "note": "[CBK287014]", "% of control remaining": 114.359}, {"smiles": "CN1CC(=O)N2CCOC(C2)c2cccc(n2)NC(=O)C/C=C/CC2(CCN(c3ncccn3)CC2)C1=O", "note": "(stereo not drawn) [CBK292188]", "% of control remaining": 148.61}, {"smiles": "c1ccc(-c2nc3cnccn3c2Nc2ccc3c(c2)OCCO3)cc1", "note": "[CBK287857]", "% of control remaining": 146.44}, {"smiles": "NC1CCN(c2nccnc2OCCOc2cccnc2)CC1", "note": "[CBK003889F]", "% of control remaining": 137.035}, {"smiles": "Cc1ccc(OCc2cc(-c3ccco3)on2)c([N+](=O)[O-])n1", "note": "[CBK233261]", "% of control remaining": 153.769}, {"smiles": "O=C(NC(Nc1ncccn1)C(Cl)(Cl)Cl)c1ccccc1", "note": "(stereo not drawn) [CBK261408]", "% of control remaining": 116.359}, {"smiles": "O=S(=O)(/N=C(/NS(=O)(=O)c1cccc2ccccc12)c1ccccc1)c1ccccc1", "note": "[CBK263105]", "% of control remaining": 101.205}, {"smiles": "COc1ccc(-c2cnc(NS(C)(=O)=O)c(C(=O)NCc3ccco3)c2)cc1", "note": "[CBK076539]", "% of control remaining": 126.68}, {"smiles": "COc1ccc(-c2cncc(C3CN(Cc4cccc5ncccc45)CCO3)n2)cc1", "note": "(stereo not drawn) [CBK285947]", "% of control remaining": 116.473}, {"smiles": "COc1ccc(Cn2nc(NS(=O)(=O)c3ccc(-c4ccon4)s3)c3ccccc32)cc1", "note": "[CBK048031]", "% of control remaining": 138.932}, {"smiles": "Cc1nccn1CC1(O)CCN(C(=O)Cc2cccc(F)c2)CC1", "note": "[CBK282184]", "% of control remaining": 117.2}, {"smiles": "Nc1cc(=O)[nH]c(=O)n1Cc1ccc(Cl)cc1", "note": "[CBK288002]", "% of control remaining": 169.486}, {"smiles": "O=C(NC[C@H]1O[C@@H](CC(=O)N2CCN(c3ccccn3)CC2)[C@H](O)[C@@H]1O)C1CC1", "note": "[CBK288904]", "% of control remaining": 113.359}, {"smiles": "O=C(Oc1cccc2cccnc12)c1ccc(Br)o1", "note": "[CBK019461]", "% of control remaining": 101.98}, {"smiles": "COc1ccc(C(=O)NCC(O)CN2CCOCC2)cc1[N+](=O)[O-]", "note": "(stereo not drawn) [CBK265643]", "% of control remaining": 106.799}, {"smiles": "O=C(CC1Sc2ccccc2NC1=O)Nc1ccc(C(F)(F)F)cc1", "note": "(stereo not drawn) [CBK287585]", "% of control remaining": 118.454}, {"smiles": "COc1cccc(NC(=O)CCS(=O)(=O)c2ccccc2)c1", "note": "[CBK270150]", "% of control remaining": 132.061}, {"smiles": "CC(c1ccc(Cl)cc1)N(CCN(C)C)c1ccccn1", "note": "(stereo not drawn) [CBK012273F]", "% of control remaining": 131.794}, {"smiles": "CCNC(=O)Nc1ccc([C@@H](O)[C@H]2COCC(=O)N2CC)cc1", "note": "[CBK289696]", "% of control remaining": 118.13}]}]}
